Patent US20210361776A1 (Seagen, published 2021)
No constants are given. Whether binding was seen depends on the method and setting. Some results given as binding are weak or reduced against the parent protein; the word gives no strength.

Protein sequences, listed by entry. Tags and fused reporters are not part of them. Residues count along the entry.
UniProt P51654, residues 25-559: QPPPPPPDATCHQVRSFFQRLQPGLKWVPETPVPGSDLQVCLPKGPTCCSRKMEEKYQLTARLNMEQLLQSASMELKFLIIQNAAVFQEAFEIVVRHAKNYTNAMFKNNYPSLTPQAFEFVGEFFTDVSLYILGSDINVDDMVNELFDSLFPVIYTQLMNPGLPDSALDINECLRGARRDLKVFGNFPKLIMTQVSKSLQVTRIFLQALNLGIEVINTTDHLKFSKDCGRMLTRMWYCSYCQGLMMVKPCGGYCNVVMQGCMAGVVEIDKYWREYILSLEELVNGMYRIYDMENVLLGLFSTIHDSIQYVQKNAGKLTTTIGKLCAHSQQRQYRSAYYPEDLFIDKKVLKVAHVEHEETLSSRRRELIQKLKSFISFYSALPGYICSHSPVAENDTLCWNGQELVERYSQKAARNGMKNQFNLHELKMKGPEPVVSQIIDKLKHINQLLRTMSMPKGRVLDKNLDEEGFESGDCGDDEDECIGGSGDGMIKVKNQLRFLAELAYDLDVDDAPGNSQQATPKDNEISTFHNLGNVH

Columns and labels:
[1] = biological target: Human GPC3 (hGPC3 GP3-H5258, AcroBiosystems), biotinylated (human) (UniProt P51654); test: sensorgrams at 400, 160, 64, 25.6, 10.2, 4.1 and 1.64 nM on immobilized hGPC3
[2] = biological target: Human GPC3 (hGPC3 GP3-H5258, AcroBiosystems), biotinylated (human) (UniProt P51654); test: biolayer interferometry (Octet Red 384; the legend calls it surface plasmon resonance), biotinylated hGPC3 on streptavidin (SAX) biosensors, hGPC3-1ec as analyte at 400, 160, 64, 25.6, 10.2, 4.1 and 1.64 nM, association 600 sec, dissociation 1800 sec

B1: hGPC3-1ec (HBLE) (antibody, V domains shown)
VH: EVQLVQSGAEVKKPGATVKISCKVSGYTFTDYEMHWVQQAPGKGLEWMGGIDPETGGTAYNQKFKGRVTLTADKSTDTAYMELSSLRSEDTAVYYCGRYYSFAYWGQGTLVTVSS
VL: DVVMTQSPLSLPVTLGQPASISCRSSQSIVHSNANTYLQWFQQRPGQSPRLLIYKVSNRFSGVPDRFSGSGSGTDFTLKISRVEAEDVGVYYCFQVSHVPYTFGQGTKLEIK
notes: HBLE variable regions on IgG1 with a cysteine substitution at position 239 of the heavy chain (S239C, EU index); 'ec' marks this; Tested unconjugated; also called humanized GPC3-1ec
What does the source list for B1?
binding [1]: binds; binding [2]: binds
